Not every detail of the peptide structures is certain; ends, links or a residue may be inferred. Residues, ends and D or L forms follow the SMILES beside them. No end group written: not given here. *: point of attachment. Palmitoyl = CCCCCCCCCCCCCCCC(=O)*
Assays:
MRSA [1] = test: Viable colony count assay (bactericidal effect, 4 h); type: cell-based, methicillin-resistant S. aureus (MRSA, ATCC #43300); details: 20 to 100 μM
Protocol: (§1) The bactericidal effects of the peptides were examined using a viable colony count assay as well as the live/dead staining assay. For the viable colony count assay, bacteria were treated with peptides for 4 h and the resulting viable bacterial density of each sample was expressed by log10[CFU/mL]. For the Gram-positive bacteria tested, the decrease in bacterial density was dependent on the concentration of the ACA-PA (FIG. 8A). […] As for Gram-negative E. coli and MDR E. coli bacteria (FIG. 8B), the ACA nanorods, wherein the PA were added at a concentration above their CMC, had potent bactericidal effects. For example, the ACA nanorods at concentrations over 60 μM reduced the colony forming units of Gram-negative bacteria by about a five log unit reduction after 4 h compared with the untreated negative control sample.
(§2) In addition, ACA-PA were mixed with heparin at various weight ratios (1:1, 1:2, and 1:3 ACA-PA to heparin ratios) to block the Cardin motif groups on the PA. […]
(§3) The viable count assay was performed to quantify the bactericidal activity of each peptide. […] The colonies from each spot were manually counted, and the CFU number for each sample was determined. Experiments were conducted in triplicate and results were expressed as the log 10 values of the CFU number in each sample. […]

MRSA [2] = test: Bacterial growth inhibition (growth curves, OD562, 20 h); type: cell-based, methicillin-resistant S. aureus (MRSA, ATCC #43300); details: 20 to 100 μM
Protocol: (§4) Gram-positive (S. aureus and MRSA) and Gram-negative (E. coli and MDR E. coli) bacteria were incubated with peptide concentrations ranging from 20 to 100 μM, and time-lapsed bacterial growth was monitored for 20 hours by determining the optical density at 562 nm (O.D. 562 nm). […] At the highest concentration tested (100 μM), the time to exponential growth phase of S. aurues was delayed by about 18 h (FIG. 5B), and was prolonged by almost 13 h for MRSA (FIG. 5A), while bacteria incubated without ACA-PA entered the exponential growth phase within 4 h. Gram-positive bacteria were also susceptible to the ACA-PA even below their CMC. […]
(§5) This assay was performed to investigate the inhibitory effects of each peptide against Gram-positive Staphylococcus aureus (S. aureus, ATCC #25923) and methicillin-resistant S. aureus (MRSA, ATCC #43300), as well as Gram-negative Escherichia coli (E. coli, ATCC #25922), and multidrug-resistant E. coli (MDR E. coli, ATCC #BAA-2471). […] The bacteria were incubated inside a spectrophotometer (Spectra-Max Paradigm, Molecular Devices, Sunnyvale, CA) at 37° C. under static conditions for 20 h, and the bacterial growth curves were measured in terms of turbidity at OD562 every 2 minutes. The normalized OD562 values of samples were calculated by subtracting the […].

MDR E. coli [3] = test: Viable colony count assay (bactericidal effect, 4 h); type: cell-based, multidrug-resistant E. coli (MDR E. coli, ATCC #BAA-2471); details: 20 to 100 μM
Protocol: as §1, §2, §3

MDR E. coli [4] = test: Bacterial growth inhibition (growth curves, OD562, 20 h); type: cell-based, multidrug-resistant E. coli (MDR E. coli, ATCC #BAA-2471); details: 20 to 100 μM
Protocol: as §4, §5

[5] = Critical micelle concentration (CMC) by Nile Red fluorescence; type: physicochemical; details: in water, Nile Red dye
Source text: First, the solvatochromic probe Nile Red was used to examine the threshold concentrations for the spontaneous aggregation induced by hydrophobic collapse of peptides. Once the supramolecular structures of PA self-assemble in water at their CMC, the Nile Red dye can be solubilized in the hydrophobic cores of the PA assemblies, displaying an enhanced fluorescent intensity. Consequently, the fluorescent intensity maxima of Nile Red were at the emission wavelength of 630 nm in the solutions of CVK-PA and ACA-PA, whereas the emission wavelength was located at 660 nm in the Bi-Cardin peptide solutions (FIG. 4A-4D). […] To estimate the CMC of each peptide, the corrected fluorescent intensity (If,corrected) of Nile Red at its emission wavelength for each peptide solution was calculated using equation: If,corrected=If,sample−If,water, where If,sample is the average of the triplicate fluorescent intensity measurements in the sample and If,water is the fluorescent intensity of Nile Red in water without the peptide. The measurements of the corrected fluorescent intensity were plotted against the log 10 values of concentration of each peptide, then the CMC value was determined at the point of intersection of the plot of log peptide concentration and fluorescent intensity of Nile Red.

Compound | bactericidal effect (MRSA [1]) | bacterial growth inhibition (MRSA [2]) | bactericidal effect (MDR E. coli [3]) | bacterial growth inhibition (MDR E. coli [4]) | CMC [5]
CCCCCCCCCCCCCCCC(=O)N[C@H](C(=O)N[C@H](C(=O)N[C@H](C(=O)N[C@H](C(=O)N[C@@H](CCCCN)C(=O)N[C@@H](CCCCN)C(=O)N[C@@H](CCCCN)C(=O)N[C@@H](CCCCN)C(=O)O)C(C)C)C(C)C)C(C)C)C(C)C [CVK-PA, C16-V4K4 (SEQ ID NO: 1), reference compound] (Palmitoyl-VVVVKKKK-OH) | no bactericidal effects | some inhibition of the proliferation | no bactericidal effects | – | –
AKKARAAKKARA [Bi-Cardin, (AKKARA)2 (SEQ ID NO: 2), reference compound] | no bactericidal effects | unable meaningfully to inhibit the proliferation | no bactericidal effects | unable meaningfully to inhibit the proliferation | did not self-assemble

From patent US12319752B2, “Heparin-binding cationic peptide self-assembling peptide amphiphiles useful against drug-resistant bacteria” (priority 2016, dated 2025)
